# Measured values from PubChem BioAssay AID1508586 (ICCB-Longwood Screening Facility, Harvard Medical School, 2020).
# The other results are listed elsewhere or left out.
# Experiment: MELAS cybrid and Rieske KO viability enhancers – cell-based, MELAS cybrids, Rieske KO mouse fibroblasts, CellTiter-Glo, primary screen (AID 1508586);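 note: test concentration not given here; z relative to plate mean and SD of compound and empty wells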
# Settings: MELAS cybrid survival, low glucose, CellTiter-Glo 48 h; Rieske KO fibroblast survival, 72 h
row,Structure (SMILES),z-score
1,NC(=O)Nc1ccc([As](=O)(O)O)cc1,-0.0587
2,C/C1=C2N=C(/C=C3N=C(/C(C)=C4\[N-][C@@](C)([C@@H]5N=C1[C@](C)(CCC(=O)NC[C@@H](C)OP(=O)([O-])O[C@H]1[C@@H](O)[C@@H](n6cnc7cc(C)c(C)cc76)O[C@@H]1CO)[C@H]5CC(N)=O)[C@@](C)(CC(N)=O)[C@@H]4CCC(N)=O)[C@@](C)(CC(N)=O)[C@@H]\3CCC(N)=O)C(C)(C)[C@@H]/2CCC(N)=O.[C-]#N.[Co+3],-0.194
3,CC1=C2[N-][C@@H](C(CC(N)=O)[C@@]2(C)CCC(=O)NCC(C)OP(=O)([O-])OC2C(CO)OC(n3cnc4cc(C)c(C)cc43)C2O)[C@]2(C)N=C(C(C)=C3N=C(C=C4N=C1C(CCC(N)=O)C4(C)C)C(CCC(N)=O)[C@]3(C)CC(N)=O)C(CCC(N)=O)[C@]2(C)CC(N)=O.[C-]#N.[Co+3] (stereo partly drawn),-0.269
